PubChem BioAssay AID1159584, Peter MacCallum Cancer Centre, 2016
Purpose: 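Knock-downs that harm CDH1-null cells more than parental MCF10A cells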 (primary screen). System: human MCF10A breast epithelial cells, parental and CDH1-null. Reagents: siRNA against human genes. Measured: 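Cell viability by CellTiter-Glo ATP luminescence, each line scaled to the mean of mock wells across plates, then CDH1-null over parental ratio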. Scale: CDH1-null / parental viability ratio: higher = CDH1-null cells survive relatively better than parental.
Shown is a random part of about 18,000 reagents. Not all columns of the deposit are shown. Reagent sequences are not shown. The record does not give: the amount of reagent, the time to read-out.

| target | CDH1-null / parental viability ratio |
| --- | --- |
| POTEH | 1.31 |
| ZNF274 | 1.06 |
| CYB561D1 | 0.84 |
| MAP2K2 | 0.81 |
| CSRNP3 | 0.93 |
| TEX47 | 1.34 |
| DR1 | 0.91 |
| CDC42BPA | 0.97 |
| WNT8B | 0.98 |
| LINC01465 | 0.84 |
| IL17RA | 0.63 |
| SNX1 | 1.14 |
| OXT | 0.85 |
| ARHGAP15 | 0.98 |
| ST6GAL1 | 1.21 |
| FAM222A | 0.94 |
| MC4R | 0.87 |
| TNFRSF1B | 0.79 |
| ECRG4 | 0.8 |
| SLX4IP | 0.9 |
| MTMR1 | 1.23 |
| ZNF106 | 1.17 |
| ABHD10 | 1.23 |
| GLS | 0.71 |
| PAPOLB | 0.82 |
| PCDHGA4 | 1.23 |
| RAD52 | 1.1 |
| TPT1 | 0.85 |
| SND1-IT1 | 1 |
| SNRPF | 1.34 |
| VPS53 | 1.13 |
| GSTA2 | 1.34 |
| CCL27 | 1.01 |
| ABHD17AP1 | 1.19 |
| ZNF14 | 1.03 |
| NDUFA12 | 1 |
| SLC1A5 | 1.12 |
| AICDA | 1.21 |
| OR14A16 | 0.87 |

6 of these entries, reformatted.
target | CDH1-null / parental viability ratio
SND1-IT1 | 1
SNRPF | 1.34
VPS53 | 1.13
GSTA2 | 1.34
CCL27 | 1.01
ABHD17AP1 | 1.19

Next entries follow:
| target | CDH1-null / parental viability ratio |
| --- | --- |
| FBN1 | 0.76 |
| NXNL1 | 0.99 |
| ACTR6 | 0.89 |
| SPHK2 | 1.06 |
| POU1F1 | 0.87 |
| MYH9 | 0.91 |
| MPHOSPH10 | 1 |
| TRNP1 | 1.21 |
| RB1 | 0.91 |
| C6orf47 | 1.1 |
| EIF4G2 | 1.06 |
| AHI1 | 1.06 |
| GATA1 | 0.54 |
| S100P | 0.98 |
| ALS2 | 1 |
| TNF | 0.94 |
| GATAD2A | 0.94 |
| IL2RA | 1.16 |
| KGD4 | 1.02 |
| CTPS1 | 0.98 |
| MTCL3 | 1.11 |
| RHOB | 0.77 |
| CHCHD5 | 1.04 |
| PARVA | 1.3 |
| CCNQ | 0.6 |
| FAM194C | 1.04 |
| MIER2 | 0.98 |
| RTL6 | 1.1 |
| HTATSF1 | 0.68 |
